Experimental data reported in the supplement of paper PMC10077471.
Over roughly 1,900 compounds, “excess over highest single agent (ExcessHSA) synergy score, 6x6 matrix” has its median near -83; the lowest 2% begin near -370. Some of the results follow.

System: NCI-H446
Assay: excess over highest single agent (ExcessHSA) synergy score, 6x6 matrix; higher = less synergy (more negative = stronger synergy)
Settings: 72 h; CellTiter-Glo viability

Point of comparison: `NS(=O)(=O)c1ccc(Nc2nc(OCC3CCCCC3)c3[nH]cnc3n2)cc1` + Cc1sc2c(c1C)C(c1ccc(Cl)cc1)=N[C@@H](CC(=O)OC(C)(C)C)c1nnc(C)n1-2 [NCGC00250412-19], “excess over highest single agent” value -148. Against it:
- Cc1cccc(CN2CCN(C(c3ccccc3)c3ccc(Cl)cc3)CC2)c1 (stereo not drawn) + Cc1sc2c(c1C)C(c1ccc(Cl)cc1)=N[C@@H](CC(=O)OC(C)(C)C)c1nnc(C)n1-2 [NCGC00250412-19] — higher, -145
- COc1cnc(NS(=O)(=O)c2ccc(N)cc2)nc1 + Cc1sc2c(c1C)C(c1ccc(Cl)cc1)=N[C@@H](CC(=O)OC(C)(C)C)c1nnc(C)n1-2 [NCGC00250412-19] — higher, 272
- O=C(O)CCn1c2c(c3ccccc31)C[C@H](NS(=O)(=O)c1ccc(F)cc1)CC2 + Cc1sc2c(c1C)C(c1ccc(Cl)cc1)=N[C@@H](CC(=O)OC(C)(C)C)c1nnc(C)n1-2 [NCGC00250412-19] — higher, -70.7
- O=NN(CCCl)C(=O)NC1CCCCC1 + Cc1sc2c(c1C)C(c1ccc(Cl)cc1)=N[C@@H](CC(=O)OC(C)(C)C)c1nnc(C)n1-2 [NCGC00250412-19] — higher, 147
- Nc1nc(F)nc2c1ncn2[C@@H]1O[C@H](CO)[C@@H](O)[C@H]1O + Cc1sc2c(c1C)C(c1ccc(Cl)cc1)=N[C@@H](CC(=O)OC(C)(C)C)c1nnc(C)n1-2 [NCGC00250412-19] — lower, -191
- CCOC(=O)C1=C[C@]2(CC)CCCN3CCc4c(n1c1ccccc41)[C@@H]32 + Cc1sc2c(c1C)C(c1ccc(Cl)cc1)=N[C@@H](CC(=O)OC(C)(C)C)c1nnc(C)n1-2 [NCGC00250412-19] — lower, -195
- COC[C@@H](NC(C)=O)C(=O)NCc1ccccc1 + Cc1sc2c(c1C)C(c1ccc(Cl)cc1)=N[C@@H](CC(=O)OC(C)(C)C)c1nnc(C)n1-2 [NCGC00250412-19] — higher, -71.4
- CN1CCC(COc2cnc(-c3cccc(Cn4nc(-c5cccc(C#N)c5)ccc4=O)c3)nc2)CC1 + Cc1sc2c(c1C)C(c1ccc(Cl)cc1)=N[C@@H](CC(=O)OC(C)(C)C)c1nnc(C)n1-2 [NCGC00250412-19] — higher, -18.5
- CC(C)c1cc(C(=O)N2Cc3ccc(CN4CCN(C)CC4)cc3C2)c(O)cc1O + Cc1sc2c(c1C)C(c1ccc(Cl)cc1)=N[C@@H](CC(=O)OC(C)(C)C)c1nnc(C)n1-2 [NCGC00250412-19] — lower, -247
- N=c1c2c(-c3ccccc3)c(-c3ccccc3)n(Cc3ccccc3)c2ncn1[C@H]1CC[C@H](O)CC1 + Cc1sc2c(c1C)C(c1ccc(Cl)cc1)=N[C@@H](CC(=O)OC(C)(C)C)c1nnc(C)n1-2 [NCGC00250412-19] — lower, -331
- Nc1ncnc2c1c(-c1cccc(OCc3ccccc3)c1)cn2C1CC(CN2CCC2)C1 (stereo not drawn) + Cc1sc2c(c1C)C(c1ccc(Cl)cc1)=N[C@@H](CC(=O)OC(C)(C)C)c1nnc(C)n1-2 [NCGC00250412-19] — higher, -56.6
- C[C@]12CC[C@@H]3c4ccc(O)cc4CC[C@H]3[C@@H]1CCC2=O + Cc1sc2c(c1C)C(c1ccc(Cl)cc1)=N[C@@H](CC(=O)OC(C)(C)C)c1nnc(C)n1-2 [NCGC00250412-19] — higher, -136
- CCCCCCCCc1ccc(CCC(N)(CO)CO)cc1 + Cc1sc2c(c1C)C(c1ccc(Cl)cc1)=N[C@@H](CC(=O)OC(C)(C)C)c1nnc(C)n1-2 [NCGC00250412-19] — higher, -53.8
- CC[C@H]1OC(=O)[C@H](C)C(=O)[C@H](C)[C@@H](O[C@@H]2O[C@H](C)C[C@H](N(C)C)[C@H]2O)[C@](C)(OC)C[C@@H](C)C(=O)[C@H](C)[C@H]2N(CCCCn3cnc(-c4cccnc4)c3)C(=O)O[C@]12C + Cc1sc2c(c1C)C(c1ccc(Cl)cc1)=N[C@@H](CC(=O)OC(C)(C)C)c1nnc(C)n1-2 [NCGC00250412-19] — lower, -231
- N#C[C@@H]1C[C@@H]2C[C@@H]2N1C(=O)[C@@H](N)C12CC3CC(CC(O)(C3)C1)C2 + Cc1sc2c(c1C)C(c1ccc(Cl)cc1)=N[C@@H](CC(=O)OC(C)(C)C)c1nnc(C)n1-2 [NCGC00250412-19] — higher, 378
- O=C1CCc2cc(OCCCCc3nnnn3C3CCCCC3)ccc2N1 + Cc1sc2c(c1C)C(c1ccc(Cl)cc1)=N[C@@H](CC(=O)OC(C)(C)C)c1nnc(C)n1-2 [NCGC00250412-19] — lower, -180
- CNC(=O)N1N=C(c2ccc(N)cc2)c2cc3c(cc2CC1C)OCO3 (stereo not drawn) + Cc1sc2c(c1C)C(c1ccc(Cl)cc1)=N[C@@H](CC(=O)OC(C)(C)C)c1nnc(C)n1-2 [NCGC00250412-19] — higher, -19.1
- CCC1=C(C)CN(C(=O)NCCc2ccc(S(=O)(=O)NC(=O)N[C@H]3CC[C@H](C)CC3)cc2)C1=O + Cc1sc2c(c1C)C(c1ccc(Cl)cc1)=N[C@@H](CC(=O)OC(C)(C)C)c1nnc(C)n1-2 [NCGC00250412-19] — higher, -65.4
- Cc1ccccc1-n1c(Cn2nc(-c3cccc(O)c3)c3c(N)ncnc32)nc2cccc(C)c2c1=O + Cc1sc2c(c1C)C(c1ccc(Cl)cc1)=N[C@@H](CC(=O)OC(C)(C)C)c1nnc(C)n1-2 [NCGC00250412-19] — lower, -224
- C[C@@]12C[C@@]3(O)O[C@@H](O1)[C@]1(COC(=O)c4ccccc4)[C@H]3C[C@@]12O[C@@H]1O[C@H](CO)[C@@H](O)[C@H](O)[C@H]1O + Cc1sc2c(c1C)C(c1ccc(Cl)cc1)=N[C@@H](CC(=O)OC(C)(C)C)c1nnc(C)n1-2 [NCGC00250412-19] — higher, -20.9
- Cc1coc2c1C(=O)C(=O)c1c-2ccc2c(C)cccc12 + Cc1sc2c(c1C)C(c1ccc(Cl)cc1)=N[C@@H](CC(=O)OC(C)(C)C)c1nnc(C)n1-2 [NCGC00250412-19] — higher, -49.1
- CCC(C)SSc1ncc[nH]1 (stereo not drawn) + Cc1sc2c(c1C)C(c1ccc(Cl)cc1)=N[C@@H](CC(=O)OC(C)(C)C)c1nnc(C)n1-2 [NCGC00250412-19] — higher, -27.8
- COc1ccc2cc1Oc1ccc(cc1)C[C@H]1c3cc(c(OC)cc3CCN1C)Oc1c(OC)c(OC)cc3c1[C@H](C2)N(C)CC3 + Cc1sc2c(c1C)C(c1ccc(Cl)cc1)=N[C@@H](CC(=O)OC(C)(C)C)c1nnc(C)n1-2 [NCGC00250412-19] — lower, -432
- CC1=NN=C(c2ccc(N)cc2)c2cc3c(cc2C1)OCO3 + Cc1sc2c(c1C)C(c1ccc(Cl)cc1)=N[C@@H](CC(=O)OC(C)(C)C)c1nnc(C)n1-2 [NCGC00250412-19] — higher, -71.5
- Nc1ncnc2c1c(-c1cnc3[nH]ccc3c1)nn2C1CCCC1 + Cc1sc2c(c1C)C(c1ccc(Cl)cc1)=N[C@@H](CC(=O)OC(C)(C)C)c1nnc(C)n1-2 [NCGC00250412-19] — lower, -352
- Cc1nc(NC(=O)N2CCC[C@H]2C(N)=O)sc1-c1ccnc(C(C)(C)C(F)(F)F)c1 + Cc1sc2c(c1C)C(c1ccc(Cl)cc1)=N[C@@H](CC(=O)OC(C)(C)C)c1nnc(C)n1-2 [NCGC00250412-19] — lower, -208
- Cc1[nH]c(/C=C2\C(=O)Nc3ccc(S(=O)(=O)N(C)c4cccc(Cl)c4)cc32)c(C)c1C(=O)N1CCN(C)CC1 + Cc1sc2c(c1C)C(c1ccc(Cl)cc1)=N[C@@H](CC(=O)OC(C)(C)C)c1nnc(C)n1-2 [NCGC00250412-19] — lower, -183
- CN(C)Cc1ccc(-c2nc3cccc4c3n2CCNC4=O)cc1 + Cc1sc2c(c1C)C(c1ccc(Cl)cc1)=N[C@@H](CC(=O)OC(C)(C)C)c1nnc(C)n1-2 [NCGC00250412-19] — higher, -101
- CC1(C)NC(=O)N(c2ccc([N+](=O)[O-])c(C(F)(F)F)c2)C1=O + Cc1sc2c(c1C)C(c1ccc(Cl)cc1)=N[C@@H](CC(=O)OC(C)(C)C)c1nnc(C)n1-2 [NCGC00250412-19] — higher, -33.6
- CCOc1cc(/C=C2/C(=O)N(c3ccccc3)N=C2C)cc(Cl)c1OCC(=O)OC + Cc1sc2c(c1C)C(c1ccc(Cl)cc1)=N[C@@H](CC(=O)OC(C)(C)C)c1nnc(C)n1-2 [NCGC00250412-19] — higher, 76.6
- COC(=O)[C@@H]1[C@H]2C[C@H]3c4[nH]c5ccccc5c4CCN3C[C@@H]2CC[C@@H]1O + Cc1sc2c(c1C)C(c1ccc(Cl)cc1)=N[C@@H](CC(=O)OC(C)(C)C)c1nnc(C)n1-2 [NCGC00250412-19] — lower, -177
- C[N+](C)([O-])CCNc1ccc(NCC[N+](C)(C)[O-])c2c1C(=O)c1c(O)ccc(O)c1C2=O + Cc1sc2c(c1C)C(c1ccc(Cl)cc1)=N[C@@H](CC(=O)OC(C)(C)C)c1nnc(C)n1-2 [NCGC00250412-19] — lower, -286
- CCNC(=O)Nc1ccc(Oc2ncnc(N)c2/C=N/OC)cc1Cl + Cc1sc2c(c1C)C(c1ccc(Cl)cc1)=N[C@@H](CC(=O)OC(C)(C)C)c1nnc(C)n1-2 [NCGC00250412-19] — higher, -74.4
- CCCS(=O)(=O)Nc1ccc(F)c(C(=O)c2c[nH]c3ncc(-c4ccc(Cl)cc4)cc23)c1F + Cc1sc2c(c1C)C(c1ccc(Cl)cc1)=N[C@@H](CC(=O)OC(C)(C)C)c1nnc(C)n1-2 [NCGC00250412-19] — higher, -108
- O=C(Nc1c(Cl)cncc1Cl)c1ccc(OC(F)F)c(OCC2CC2)c1 + Cc1sc2c(c1C)C(c1ccc(Cl)cc1)=N[C@@H](CC(=O)OC(C)(C)C)c1nnc(C)n1-2 [NCGC00250412-19] — lower, -238
- O=S(=O)(O)CCS + Cc1sc2c(c1C)C(c1ccc(Cl)cc1)=N[C@@H](CC(=O)OC(C)(C)C)c1nnc(C)n1-2 [NCGC00250412-19] — higher, -144
- CCOc1ccccc1OCCN[C@H](C)Cc1ccc(OC)c(S(N)(=O)=O)c1 + Cc1sc2c(c1C)C(c1ccc(Cl)cc1)=N[C@@H](CC(=O)OC(C)(C)C)c1nnc(C)n1-2 [NCGC00250412-19] — higher, 11.6
